No constants are given. Whether binding was seen depends on the method and setting. Binding seen in cells or lysates may run through a third protein. Here binding means that the protein was enriched with, or labelled near, the bait; the list need not be complete.
Target: T1, Set8 (affinity purification coupled with mass spectrometry) (UniProt Q9NQR1)
T1 sequence: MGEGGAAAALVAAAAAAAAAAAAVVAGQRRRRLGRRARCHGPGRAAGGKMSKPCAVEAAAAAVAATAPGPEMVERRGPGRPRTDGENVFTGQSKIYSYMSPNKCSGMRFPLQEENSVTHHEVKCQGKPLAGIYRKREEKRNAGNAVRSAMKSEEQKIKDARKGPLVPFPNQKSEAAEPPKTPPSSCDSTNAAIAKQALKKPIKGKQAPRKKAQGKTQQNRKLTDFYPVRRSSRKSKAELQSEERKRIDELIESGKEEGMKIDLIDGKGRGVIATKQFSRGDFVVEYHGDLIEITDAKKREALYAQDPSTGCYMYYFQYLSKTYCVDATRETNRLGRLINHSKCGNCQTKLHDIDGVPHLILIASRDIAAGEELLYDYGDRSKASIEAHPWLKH
Assay: affinity purification with mass spectrometry; whole cellular extracts, affinity purification with anti-Flag antibody, SDS-PAGE, silver stain, bands analysed by mass spectrometry (the methods name Flag-β-TRCP1 stably expressing 293 T cells)

By UniProt entry, the sequences of proteins in these tests, tags left out.
UniProt P12004: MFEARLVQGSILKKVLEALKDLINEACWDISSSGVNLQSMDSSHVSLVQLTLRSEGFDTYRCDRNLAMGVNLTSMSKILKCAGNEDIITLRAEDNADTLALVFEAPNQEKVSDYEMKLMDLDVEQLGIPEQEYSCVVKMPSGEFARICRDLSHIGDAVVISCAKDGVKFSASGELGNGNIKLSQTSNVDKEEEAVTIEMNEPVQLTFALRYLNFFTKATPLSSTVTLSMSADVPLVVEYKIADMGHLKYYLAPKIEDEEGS

| binding | Substance |
| --- | --- |
| binds | PCNA (from UniProt P12004 1-261) |
| binds | β-TRCP (found by mass spectrometry) |

Reference: paper PMC4682171
